In article PMC10163288:
This is one part of the list.

B1: il2ra_site2_3nfp_normal_mot_HHH_b1_00660_af2_000000090_0001_40_57_H_._HHH_b2_00518_af2_0001_0000600042_0000001_0_af2pred_0001_af2pred (protein)
chain: SSSSSEDEERIEKLLEQAEEALEEGDEEKAKRLILEASQIAYEANNYELFALVLNVKEKLESSSS
B2: il2ra_site1_2b5i_normal_mot_HHH_b1_06258_af2_000000112_0001_42_56_H_._HHH_b2_03461_0001_0000100008_0000001_0 (protein)
chain: SSSSDQEERRVDELFREASRAYRRGDPEKARKLLEEALELAEELGDERAFEQIRFMLERLRSSSS
B3: il2ra_site1_1z92_normal_mot_01209686ea234b34325f918445e6eade_0001_af2_000000154_0001_18_33_H_._HHH_b2_04498_0001_0000200011_0000001_0_af2pred_0001_af2pred_1_swa … (protein)
chain: SSSSSDEEERIVEELIEELGGSEHDREAAERDAEAARRQGFSEENIRKALERAIRIFLERSSSSS
B4: il2ra_site1_2b5i_normal_mot_HHH_b2_04910_000000118_0001_1_19_H_._HHH_b1_05884_0001_0000300017_0000001_0_af2pred_dldesign_0_af2pred (protein)
chain: SSSSSAEARRLRELLLEADRLFQAGKEEEARATLERALELAKKAKANNTLKMIQSALENLGSSSS
B5: il2ra_site1_2b5i_sap_12_mot_HHH_b2_04545_af2_000000008_0001_21_36_H_._HHH_b1_01434_af2_0001_0000100005_0000001_0_0001_af2pred_dldesign_0_af2pred (protein)
chain: SSSSSSPKEEVEKLIEEAKKEPDREKTKELLDKAYDIAYEAEDKELIKKVIKVRYELKLSSSSSS
B6: il2ra_site1_3nfp_normal_mot_7cbdf275c6f204f9d60ac8802deb44b6_0001_1_000000034_0001_19_33_H_._HHH_b1_00879_0001_0000200007_0000001_0 (protein)
chain: SSSSTADEYLEELVQEAFEEGDRLQLRALIRLLRHALERLGNPIAKELLEKAEELLKELRSSSSS
B7: il2ra_site1_3nfp_normal_mot_HHH_b1_04372_000000168_0001_18_32_H_._HHH_b2_02112_0001_0000300024_0000001_0_af2pred_0001_af2pred (protein)
chain: SSSSSSEETEEARKEIEELLKRGDEEKLEEALEEAIEIARRNDSRSLVRFLEALLRLLRRSSSSS
B8: il2ra_site1_2b5i_sap_12_mot_HHH_b2_01648_000000060_0001_42_56_H_._HHH_b1_08267_af2_0001_0000300026_0000001_0_0001 (protein)
chain: SSSSDLEELDELFHEASEAWRRGNPEEARKLLEEALRLARELGDESAERDIERFLEMLRGSSSSS
B9: il2ra_site2_2erj_normal_mot_HHH_b2_05804_000000098_0001_44_58_H_._HHH_b2_06227_af2_0001_0001300021_0000001_0 (protein)
chain: SSSSSSKEVWEQVAELLAKAAHVDEEEAEELLKEAERLAEEANNEFLKRYIEFVRRALESSSSSS
B10: il2ra_site2_2erj_normal_mot_HHH_b2_08130_000000073_0001_1_17_H_._HHH_b1_02674_0001_0000200002_0000001_0_1_af2pred_0001_1_af2pred_swapped (protein)
chain: SSSSSEEEARELVEEARRALEEGNPQEAEEIAIRLLLLAQEVGDPEVRRLLEELARRLARLSSSS
B11: il2ra_site1_3nfp_sap_13_mot_HHH_b2_06429_af2_000000115_0001_1_18_H_._HHH_b1_02888_0001_0000700049_0000001_0_0001 (protein)
chain: SSSSSELEELFRRAFELAQNGNYEEAEEVLEEARKVAEERNSEATLRFLEIALKIVKRAKSSSSS
B12: il2ra_site2_2erj_normal_mot_b21041926606bcd66a54c4cea8303fc2_0001_1_af2_000000031_0001_15_29_H_._HHH_b2_03606_0001_0000700028_0000001_0 (protein)
chain: SSSSSSDEDVKEVAELLFKAARIEDEEERREVLEQAREVAEKTNNEALKRYIEFQERDLSSSSSS
B13: il2ra_site1_1z92_sap_16_mot_HHH_b1_02849_000000017_0001_22_39_H_._HHH_b1_06964_0001_0000100005_0000001_1_0001_af2pred_0001_af2pred_1 (protein)
chain: NTEELLKQARERGTLEEFVAEIIREMRENGFPPKNIRIFVRQLLRKLGLSPEEVEEVSEKAEELG
B14: il2ra_site2_3nfp_normal_mot_HHH_b1_00660_af2_000000090_0001_40_57_H_._HHH_b2_07007_0001_0000300027_0000001_0_af2pred_0001_1_af2pred_swapped (protein)
chain: SSSSDEEEARELLEQAERLAEEGNPEEAEELLERANKIAYESNNHELFALSTEVLEKVEKLSSSS
B15: il2ra_site1_2b5i_normal_mot_HHH_b2_02846_af2_000000040_0001_1_19_H_._HHH_b2_04268_af2_0001_0000100002_0000001_0_af2pred_dldesign_0_af2pred (protein)
chain: SSSSSKEQELEVSKIIEELIEEKGLTEEQEAELRTLAVDLLYKGVSVEEIKKILKEKAEKLSSSS
B16: il2ra_site2_3nfp_normal_mot_HHH_b1_05627_af2_000000038_0001_43_56_H_._HHH_b1_05806_af2_0001_0000500032_0000001_1 (protein)
chain: SSSSDKAQEYLEAAILIVELALEEGDPESARKSAEAAALLAEALGDEELLKEIEELLEEISSSSS
B17: il2ra_site2_2erj_sap_24_mot_HHH_b1_06627_000000072_0001_40_54_H_._HHH_b1_08663_af2_0001_0000500015_0000001_0_0001 (protein)
chain: SSSSDESLEVAEEMVKEAFERGDRSLLELLLRYLELALEDTNDPEIEEVLRLAEELLEELRSSSS
B18: il2ra_site1_3nfp_sap_16_mot_HHH_b1_03160_af2_000000201_0001_1_18_H_._HHH_b2_04980_0001_0000100002_0000001_0_0001_af2pred_0001_af2pred_1_swapped (protein)
chain: DEIEEELERAAEEGNLSRVLVKLIRELSEKNEELSEKLFKVLVELAHKGVPPEEIAKIAAEVFEE
B19: il2ra_site2_3nfp_normal_mot_HHH_b1_04312_000000268_0001_22_39_H_._HHH_b2_01313_af2_0001_0000200012_0000001_0 (protein)
chain: SSSSSEEAEELLERAERALEEGDLFEASELALRASEIAARLNDEELARKILELYEELARRFSSSS

biological target: il2ra, P01589; assay: yeast display titration

| Binder | apparent Kd |
| --- | --- |
| B1 | inactive: no binding seen |
| B2 | inactive: no binding seen |
| B3 | inactive: no binding seen |
| B4 | inactive: no binding seen |
| B5 | inactive: no binding seen |
| B6 | inactive: no binding seen |
| B7 | inactive: no binding seen |
| B8 | inactive: no binding seen |
| B9 | inactive: no binding seen |
| B10 | inactive: no binding seen |
| B11 | inactive: no binding seen |
| B12 | inactive: no binding seen |
| B13 | inactive: no binding seen |
| B14 | inactive: no binding seen |
| B15 | inactive: no binding seen |
| B16 | inactive: no binding seen |
| B17 | inactive: no binding seen |
| B18 | inactive: no binding seen |
| B19 | inactive: no binding seen |

Two entries drawn at random from those above, as already listed:

| Binder | apparent Kd |
| --- | --- |
| B13 | inactive: no binding seen |
| B15 | inactive: no binding seen |
